Test results from US10633332B2, “Guanidine compounds for removal of oxyanions from aqueous solutions and for carbon dioxide capture” (UT-Battelle, LLC, priority 2010, dated 2020).

Key:
[1] = Direct air capture of CO2 with glycine and sarcosine (air humidifier); conditions: for pH initial / pH final: 1M aqueous potassium salt; for pH initial: CO2 loading; for pH final / Carbamate / Carbonate / Total CO2: after 24 hours CO2 loading; for total CO2 loading: after 24 hours
[2] = Regeneration of the amino acid sorbents with PyBIG; conditions: for Carbamate / Carbonate / Total CO2 / pH final: after stirring with PyBIG (0.5 molar equiv) for 24 hours; for pH initial: before stirring with PyBIG (0.5 molar equiv); for cyclic capacity: maximum CO2 loading after absorption minus minimum after regeneration with PyBIG
[3] = Regeneration of amino acid sorbents by boiling under reflux

Row | Structure (SMILES) | pH initial [1] | pH final [1] | total CO2 loading [1] [mol/mol] | Carbamate [1] [M] | Carbonate [1] [M] | Total CO2 [1] [M] | Carbamate [2] [M] | Carbonate [2] [M] | Total CO2 [2] [M] | pH final [2] | pH initial [2] | cyclic capacity [2] | total CO2 concentration ([3]; after 4 hours of refluxing) [M] | total CO2 concentration ([3]; after one hour of refluxing) [M] | time after which the absorption rate levels off ([1]; 1 M aqueous solution)
1 | NCC(=O)O [Glycine, glycine] | 12.31 | 9.52 | 0.73 | 0.27 | 0.46 | 0.73 | 0.05 | 0.33 | 0.38 | 10.33 | 9.63 | 0.35 mol/mol | 0.26 | 0.42 | 
2 | N=C(N)N/N=C/c1cccc(/C=N/NC(=N)N)n1 [PyBIG] |  |  |  |  |  |  |  |  |  |  |  | 0.3-0.35 mol/mol |  |  | 
3 | CNCC(=O)O [Sarcosine, sarcosine] | 12.92 | 9.99 | 0.63 | 0.17 | 0.46 | 0.63 | 0.03 | 0.29 | 0.32 | 10.53 | 9.99 | 0.31 mol/mol | 0.17 | 0.32 | about 6 hours
